The values below come from US8633207B2, “Quinazoline compounds and methods of use thereof” (Ambit Biosciences Corporation, priority 2010, dated 2014).

The test system of the data set is panel of distinct kinases, typically 359 or 386 kinases. Description: Kinase selectivity score S(10) from competition binding panel. The conditions noted are these: number of kinases with inhibition of 90% or greater divided by number of distinct kinases tested. Here is the method:
Competition binding assays used herein were developed, validated and performed as described in Fabian et al., Nature Biotechnology 2005, 23, 329-336. Kinases were produced as fusions to T7 phage (See, Fabian et al. or WO04/015142) or alternatively, the kinases were expressed in HEK-293 cells and subsequently tagged with DNA for PCR detection (See, WO08/005,310). For the binding assays, streptavidin-coated magnetic beads were treated with biotinylated affinity ligands for 30 min at rt to generate affinity resins. The liganded beads were blocked with excess biotin and washed with blocking buffer (SeaBlock (Pierce), 1% BSA, 0.05% Tween 20, 1 mM DTT) to remove unbound ligand and to reduce non-specific binding. Binding reactions were assembled by combining kinase, liganded affinity beads, and test compounds in 1× binding buffer (20% SeaBlock, 0.17×PBS, 0.05% Tween 20, 6 mM DTT). Test compounds were prepared as 100× stocks in DMSO and rapidly diluted into the aqueous environment. DMSO was added to control assays lacking a test compound. Primary screen interactions were performed in polypropylene 384-well plates in a final volume of 34 μL, while Kd determinations were performed in polystyrene 96-well plates in a final volume of 135 μL. The assay plates were incubated at room temperature with shaking for 1 hour, long enough for binding reactions to reach equilibrium, and the affinity beads were washed extensively with wash buffer (1×PBS, 0.05% Tween 20) to remove unbound protein. The beads were then resuspended in elution buffer (1×PBS, 0.05% Tween 20, 2 μM non-biotinylated affinity ligand) and incubated at room temperature with shaking for 30 min. The kinase concentration in the eluates was measured by quantitative PCR. Each kinase was tested individually against each compound. Kds were determined using eleven serial threefold dilutions. A selectivity score, which is a quantitative measure of selectivity of a compound against a panel of enzymes, may be calculated for a compound by dividing the number of enzymes for which a compound meets a set criteria, (for example, a binding constant of 100 nM or less), by the total number of enzymes tested.

As to `Cc1ccc2c(Nc3cc(C)[nH]n3)nc(C(F)(F)c3ccc(F)cn3)nc2c1` [Example 14, 2-(difluoro(5-fluoropyridin-2-yl)methyl)-7-methyl-N-(5-methyl-1H-pyrazol-3-yl)quinazolin-4-amine], the “S-Score: S(10) at 10 μM” value is reported as “D (D > 0.5)”.

In the case of `Cc1cc(Nc2nc(C(F)(F)c3ccc(F)cn3)nc3c(S(C)(=O)=O)cccc23)n[nH]1` [Example 37, 2-(difluoro(5-fluoropyridin-2-yl)methyl)-N-(5-methyl-1H-pyrazol-3-yl)-8-(methylsulfonyl)quinazolin-4-amine], the “S-Score: S(10) at 10 μM” value is given as “A (A ≦ 0.3)”.

With `Cc1cc(Nc2nc(C(F)(F)c3ccc(F)cn3)nc3c(N)cccc23)n[nH]1` [Example 50, 2-(difluoro(5-fluoropyridin-2-yl)methyl)-N4-(5-methyl-1H-pyrazol-3-yl)quinazoline-4,8-diamine], the “S-Score: S(10) at 10 μM” value is “D (D > 0.5)”.

`Cc1cc(Nc2nc(C(=O)c3ccc(F)cn3)nc3ccccc23)n[nH]1` [Example 1, (5-fluoropyridin-2-yl)(4-(5-methyl-1H-pyrazol-3-ylamino)quinazolin-2-yl)methanone]: the “S-Score: S(10) at 10 μM” value is “A (A ≦ 0.3)”.

For the compound `Cc1cc(Nc2nc(C(F)(F)c3ccc(F)cn3)nc3c(O)cccc23)n[nH]1` [Example 46, 2-(difluoro(5-fluoropyridin-2-yl)methyl)-4-((5-methyl-1H-pyrazol-3-yl)amino)quinazolin-8-ol], the “S-Score: S(10) at 10 μM” value is given as “D (D > 0.5)”.

On to `Cc1cnc(Nc2nc(C(F)(F)c3ccc(F)cn3)nc3ccccc23)s1` [Example 30, N-(2-(difluoro(5-fluoropyridin-2-yl)methyl)quinazolin-4-yl)-5-methylthiazol-2-amine], for which the “S-Score: S(10) at 10 μM” value is on record as “A (A ≦ 0.3)”.

As to `Fc1ccc(C(F)(F)c2nc(Nc3nc[nH]n3)c3ccccc3n2)nc1` [Example 31, 2-(difluoro(5-fluoropyridin-2-yl)methyl)-N-(1H-1,2,4-triazol-3-yl)quinazolin-4-amine], the “S-Score: S(10) at 10 μM” value was “A (A ≦ 0.3)”.

As to `Cc1cc(Nc2nc(C(F)(F)c3ccc(F)cn3)nc3cc(F)ccc23)n[nH]1` [Example 15, 2-(difluoro(5-fluoropyridin-2-yl)methyl)-7-fluoro-N-(5-methyl-1H-pyrazol-3-yl)quinazolin-4-amine], the “S-Score: S(10) at 10 μM” value was “C (0.4 < C ≦ 0.5)”.

Take `Cc1cc(Nc2nc(C(F)(F)c3ccc(F)cn3)nc3ccccc23)n[nH]1` [Example 2, 2-(difluoro(5-fluoropyridin-2-yl)methyl)-N-(5-methyl-1H-pyrazol-3-yl)quinazolin-4-amine]: the “S-Score: S(10) at 10 μM” value is “C (0.4 < C ≦ 0.5)”.
